The target of this test is HA-tagged Gαs (UniProt P63094). In words: co-IP; HA-tagged Gαs and FLAG-tagged CRY1 (or Cry1Δ11) coexpressed in HEK 293T cells; about 1 mg whole cell lysate (150 mM NaCl, 1% NP-40, 2 mM EDTA, 50 mM Tris pH 8.0) with 1 μg HA or FLAG Ab overnight at 4°C, protein G agarose; immunoblot with HA or FLAG Ab. Background: A western blot detects proteins with antibodies after separation by electrophoresis.

Protein sequences, listed by entry. Tags and fused reporters are not part of them. Lines headed by an entry give the natural chain unless they say otherwise; changes in a name come on top.
UniProt P63094: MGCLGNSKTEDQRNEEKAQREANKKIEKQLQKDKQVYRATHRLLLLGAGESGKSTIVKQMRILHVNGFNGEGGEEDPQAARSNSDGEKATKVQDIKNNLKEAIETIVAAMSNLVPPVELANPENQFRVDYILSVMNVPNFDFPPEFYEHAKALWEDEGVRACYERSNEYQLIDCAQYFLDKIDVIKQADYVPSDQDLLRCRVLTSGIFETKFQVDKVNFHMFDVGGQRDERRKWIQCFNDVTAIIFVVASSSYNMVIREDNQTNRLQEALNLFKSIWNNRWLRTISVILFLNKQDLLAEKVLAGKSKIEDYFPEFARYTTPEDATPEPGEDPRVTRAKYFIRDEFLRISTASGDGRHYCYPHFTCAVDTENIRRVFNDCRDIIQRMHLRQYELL
UniProt P97784: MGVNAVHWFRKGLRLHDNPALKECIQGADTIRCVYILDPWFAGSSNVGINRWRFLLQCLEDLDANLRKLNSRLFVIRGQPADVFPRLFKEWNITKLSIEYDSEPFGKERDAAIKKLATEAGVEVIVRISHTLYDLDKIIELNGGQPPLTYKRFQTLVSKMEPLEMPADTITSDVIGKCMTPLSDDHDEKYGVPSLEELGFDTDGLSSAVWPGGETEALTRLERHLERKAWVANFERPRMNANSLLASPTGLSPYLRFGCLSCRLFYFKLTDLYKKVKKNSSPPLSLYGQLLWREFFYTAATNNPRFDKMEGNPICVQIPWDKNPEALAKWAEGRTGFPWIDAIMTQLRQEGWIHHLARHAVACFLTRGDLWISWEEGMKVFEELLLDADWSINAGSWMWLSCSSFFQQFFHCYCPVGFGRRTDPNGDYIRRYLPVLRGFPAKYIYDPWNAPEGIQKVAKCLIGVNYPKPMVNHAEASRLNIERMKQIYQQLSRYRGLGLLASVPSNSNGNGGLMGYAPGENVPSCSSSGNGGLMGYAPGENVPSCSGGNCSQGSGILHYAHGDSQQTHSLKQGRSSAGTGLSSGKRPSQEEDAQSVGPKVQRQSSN

These are yes or no findings as the source states them, for the method shown. Binding seen in cells or lysates may run through a third protein.

Consider Cry1Δ11 (from UniProt P97784), for which the binding entry is recorded as “no binding”.

For the origin of these results see PMC10543712.
